Laboratory results: PubChem BioAssay AID1508597 (Cure First, 2020)
Shown is a random part of the about 2,100 reagents, in one setting of the screen. 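Calls flag viability under 80% in either arm, not effects specific to rucaparib; the reference for percent is not stated.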 A reagent listed more than once was tested more than once; the source does not tell the runs apart. Reagent sequences are not shown. Not stated in the record: the 100% reference.

- Aim: 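Knock-downs altering ovarian cancer cell survival with or without PARP inhibitor rucaparib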 (primary screen)
- System: human ovarian carcinoma lines grown from tumours: OCI-P5x (papillary serous) and OCI-C5x (clear cell)
- Reagent: siRNA pool against human genes, 1.25 pmol siRNA per well
- Duration: 72 h or 96 h, depending on the cell culture
- Conditions: rucaparib 20 µM (about IC30) or vehicle, present until read-out
- Rucaparib or vehicle: Rucaparib
- Cell line: OCI-P5x (serous)
- Measurement: 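Luminescent ATP-based viability assay read 72 or 96 h after transfection, depending on culture, given as normalised percent viability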
- Scale: viability, normalised: higher = more viable cells remaining
- Hit rule: 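a well counts as a hit if its normalised viability is under 80 percent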
- Calls: active = viability under 80%; inactive = viability 80% or more

| gene knocked down | technical replicate | viability, normalised (%) | call |
| --- | --- | --- | --- |
| FOXS1 (GeneID 2307) | 1 | 68.5 | active |
| FOXS1 (GeneID 2307) | 2 | 79.4 | active |
| FOXS1 (GeneID 2307) | 3 | 86.6 | inactive |
| COASY (GeneID 80347) | 1 | 60.6 | active |
| COASY (GeneID 80347) | 2 | 68.6 | active |
| COASY (GeneID 80347) | 3 | 50.8 | active |
| CERKL (GeneID 375298) | 1 | 71.9 | active |
| CERKL (GeneID 375298) | 2 | 69.1 | active |
| CERKL (GeneID 375298) | 3 | 85 | inactive |
| RAX2 (GeneID 84839) | 1 | 89.7 | inactive |
| RAX2 (GeneID 84839) | 2 | 70.8 | active |
| RAX2 (GeneID 84839) | 3 | 74.6 | active |
| NHEJ1 (GeneID 79840) | 1 | 71.7 | active |
| NHEJ1 (GeneID 79840) | 1 | 51.4 | active |
| NHEJ1 (GeneID 79840) | 2 | 45.8 | active |
| NHEJ1 (GeneID 79840) | 2 | 83.6 | inactive |
| NHEJ1 (GeneID 79840) | 3 | 42 | active |
| NHEJ1 (GeneID 79840) | 3 | 64.1 | active |
| TK2 (GeneID 7084) | 1 | 74.9 | active |
| TK2 (GeneID 7084) | 2 | 64.4 | active |
| TK2 (GeneID 7084) | 3 | 50 | active |
| ARFRP1 (GeneID 10139) | 1 | 86.4 | inactive |
| ARFRP1 (GeneID 10139) | 2 | 66.9 | active |
| ARFRP1 (GeneID 10139) | 3 | 75.6 | active |
| MAPK11 (GeneID 5600) | 1 | 71 | active |
| MAPK11 (GeneID 5600) | 2 | 71.5 | active |
| MAPK11 (GeneID 5600) | 3 | 70.5 | active |
| REV3L (GeneID 5980) | 1 | 55.6 | active |
| REV3L (GeneID 5980) | 2 | 37.3 | active |
| REV3L (GeneID 5980) | 3 | 64.6 | active |
| MYBL2 (GeneID 4605) | 1 | 44.4 | active |
| MYBL2 (GeneID 4605) | 2 | 49.8 | active |
| MYBL2 (GeneID 4605) | 3 | 53.9 | active |
| KPNA1 (GeneID 3836) | 1 | 66.3 | active |
| KPNA1 (GeneID 3836) | 2 | 74.1 | active |
| KPNA1 (GeneID 3836) | 3 | 95.5 | inactive |
| EPHB3 (GeneID 2049) | 1 | 58.6 | active |
| EPHB3 (GeneID 2049) | 2 | 80.5 | inactive |
| EPHB3 (GeneID 2049) | 3 | 66.6 | active |
| NR1H3 (GeneID 10062) | 1 | 80.5 | inactive |
| NR1H3 (GeneID 10062) | 2 | 71.8 | active |
| NR1H3 (GeneID 10062) | 3 | 80.5 | inactive |
| CXXC1 (GeneID 30827) | 1 | 48.6 | active |
| CXXC1 (GeneID 30827) | 1 | 76.7 | active |
| CXXC1 (GeneID 30827) | 2 | 62.4 | active |
| CXXC1 (GeneID 30827) | 2 | 72.6 | active |
| CXXC1 (GeneID 30827) | 3 | 58.1 | active |
| CXXC1 (GeneID 30827) | 3 | 80.7 | inactive |
| ACTL6A (GeneID 86) | 1 | 56.6 | active |
| ACTL6A (GeneID 86) | 2 | 46.4 | active |
| ACTL6A (GeneID 86) | 3 | 49.6 | active |
| ING2 (GeneID 3622) | 1 | 69.5 | active |
| ING2 (GeneID 3622) | 2 | 62.5 | active |
| ING2 (GeneID 3622) | 3 | 76.1 | active |
| CELF1 (GeneID 10658) | 1 | 57.1 | active |
| CELF1 (GeneID 10658) | 2 | 55.3 | active |
| CELF1 (GeneID 10658) | 3 | 55.1 | active |

In a second layout: entries from further up
{"gene knocked down": "MYBL2 (GeneID 4605)", "technical replicate": "1", "viability, normalised (%)": 44.4, "call": "active"}
{"gene knocked down": "MYBL2 (GeneID 4605)", "technical replicate": "2", "viability, normalised (%)": 49.8, "call": "active"}
{"gene knocked down": "MYBL2 (GeneID 4605)", "technical replicate": "3", "viability, normalised (%)": 53.9, "call": "active"}
{"gene knocked down": "KPNA1 (GeneID 3836)", "technical replicate": "1", "viability, normalised (%)": 66.3, "call": "active"}
